Measurements: patent publication US20130011870A1, “Method For Assaying Diseases Characterized By Dyslipidemia” (priority 2010, published 2013)

Columns and labels:
[1] = Plasma levels in coronary heart disease patients vs healthy controls (Example 2, FIG. 4); set-up: species or system human; conditions: CHD n=89, controls n=98
[2] = Estimated normal plasma (heparin) levels in a cohort of 100 healthy people; set-up: species or system human; conditions: 2.5%-97.5% percentile of 100 healthy people, d20:0 internal calibration

For `CCCCCCCCCCCCC[C@@H](O)[C@@H](N)CO` [d16:0, C16-sphinganine], the “plasma level in CHD/atherosclerosis patients compared with healthy controls” value [1] was “by trend, lower”.
In the case of `CCCCCCCCCCCCC/C=C/[C@@H](O)[C@H](C)N` [m18:1, 1-deoxy-sphingosine], the “estimated normal level in human plasma” value [2] is reported as 0.09 to 0.5 µM and the “plasma level in CHD/atherosclerosis patients compared with healthy controls” value [1] is reported as “not significantly different”.
For `CCCCCCCCCCCCCCC[C@@H](O)[C@H](C)N` [m18:0, 1-deoxy-sphinganine], the “estimated normal level in human plasma” value [2] was 0.04 to 0.26 µM and the “plasma level in CHD/atherosclerosis patients compared with healthy controls” value [1] was “not significantly different”.
With `CCCCCCCCCCC/C=C/[C@@H](O)[C@@H](N)CO` [d16:1, C16-sphingosine] the “plasma level in CHD/atherosclerosis patients compared with healthy controls” value [1] was “significantly lower”.
